Literature values in US7588892B2, “Reagent sets and gene signatures for renal tubule injury” (Entelos, Inc., priority 2004, dated 2009).

Tested on: renal tubules
Settings: rats, daily dose, route and vehicle of Table 2, day 5/7; absence of nephrotoxicity asserted from PDR and published literature; no histological injury on day 5/7; cited from earlier work

For `CC(C)c1c(C(=O)Nc2ccccc2)c(-c2ccccc2)c(-c2ccc(F)cc2)n1CC[C@@H](O)C[C@@H](O)CC(=O)O` [ATORVASTATIN], the “Class (nephrotoxic / non-nephrotoxic training label)” value is given as “Non-nephrotoxic”.
